Source: patent US11905253B2, “Compounds and pharmaceutical compositions for reducing CD95-mediated cell motility” (INSTITUT NATIONAL DE LA SANTE ET DE LA RECHERCHE MEDICALE …, priority 2018, dated 2024)
For some of these results: The name of at least one read-out is uncertain. Some entries repeat one wording, which the source may state once for all of them. Some of these results come from one statement about several compounds together. At least one structure is not confirmed: it was looked up by name or label, or the drawing left a doubt.

How the values were obtained:
[1] = target: T1, CD95/PLCγ1 interaction (SH3-PLCg1/CID-CD95) (Homo sapiens, UniProt P19174); test: Renilla luciferase protein-fragment complementation assay (PCA), SH3-PLCγ1-F1 / CID-CD95-F2; type: cell-based; conditions: for IC50 regarding the CD95/PLCγ1 interaction, in words: comment on Table 1; for disruption of the CD95/PLCγ1 interaction: HEK cells, 4 h, luminescence, FIGS. 1A, 1B, 1C
T1 construct: SH3—PLCγ1-F1 or DD-FADD-F1 (inset) was co-transfected into HEK293T cells; expressed in transfected cells; host or cells: HEK293T
T1 sequence (P19174 791-851): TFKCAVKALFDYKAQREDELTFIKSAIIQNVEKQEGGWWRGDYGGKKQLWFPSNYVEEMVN
Protocol: (§1) A. SH3—PLCγ1-F1 or DD-FADD-F1 (inset) was co-transfected into HEK293T cells along with whole CID-CD95-F2 or DD-CD95-F2 (inset). After 24 h, cells were exposed for 4 h to different compounds according to the invention at different concentrations and luminescence was assessed. The tested compounds were the compounds number 2, 3, 4, 5, 6, 7, 10, 11, 13 and 14.
(§2) F1 corresponds to the N-terminal domain of Renilla luciferase enzyme split into two fragments (F1 and F2, F2 being the C-terminal domain—see Stefan, E. et al. Proc Natl Acad Sci USA 104, 16916-21 (2007)). These F1 and F2 domains were co-expressed in HEK cells, whereupon the interaction between CD95-CID and PLCγ1, or CD95-DD and DD-FADD, allowed protein refolding and subsequent recovery of Renilla luciferase activity.
(§3) CID corresponds to amino acids 175 to 210 of CD95; DD corresponds to amino acids 210 to 303 of CD95.
(§4) Renilla luciferase-based protein-fragment complementation assay (PCA): HEK293T cells were electroporated with 10 μg DNA using a BTM-830 electroporation generator (BTX Instrument Division, Harvard Apparatus). Transfected cells were cultured for 24 h prior to PCA analyses as previously described (Poissonnier, A. et al., Immunity. 2016, 45, 209-223). Briefly, transfected cells (10^6) were washed and resuspended in 100 μL PBS and placed in OptiPlate-96 plates (Perkin-Elmer, Waltham, Mass., USA). Coelenterazine-h (5 μM, Sigma-Aldrich) was added to each well and Renilla luciferase activity was monitored for the first 10 seconds using Infinite200Pro (Tecan, Männedorf, Switzerland).

[2] = test system: CD95/PLCγ1 interaction (SH3-PLCg1/CID-CD95); test: as above; type: cell-based, human; conditions: comparison of the IC50 values of Table 1
Protocol: as §1, §2, §3, §4

[3] = target: T2, CD95/FADD interaction (DD-FADD/DD-CD95) (Homo sapiens, UniProt P25445+Q13158); test: Renilla luciferase protein-fragment complementation assay (PCA), DD-FADD-F1 / DD-CD95-F2; type: cell-based; conditions: HEK cells, 4 h, luminescence; FIGS. 1A, 1B, 1C (inset)
T2 construct: DD corresponds to amino acids 210 to 303 of CD95; expressed in transfected cells; host or cells: HEK293T
T2 sequence (P25445 226-319 limits assumed): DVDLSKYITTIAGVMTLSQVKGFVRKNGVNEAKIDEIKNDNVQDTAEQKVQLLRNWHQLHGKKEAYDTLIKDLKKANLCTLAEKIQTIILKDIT
T2 sequence (Q13158 97-181 limits assumed): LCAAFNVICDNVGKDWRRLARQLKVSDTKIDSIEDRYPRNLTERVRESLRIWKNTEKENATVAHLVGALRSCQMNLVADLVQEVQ
Protocol: as §1, §2, §3, §4

N=C(N)NCCCCC(=O)N(CCNC(=O)C(Cc1cnc[nH]1)N(CCNC(=O)C(CCCNC(=N)N)N(CCN)C(=O)CCO)C(=O)CCCCCN)C(CCCCN)C(N)=O (stereo not shown) [Compound 16] was tested, and the “IC50 regarding the CD95/PLCγ1 interaction, in words” value [1] was “particularly low IC50 values” and the “specificity for the interaction CD95/PLCγ1 compared to CD95/FADD” value (from here on “specificity … compared to CD95/FADD”) [2] was “particularly specific”.

In the case of CC(O)C(N)C(=O)NCCN(C(=O)CCS)C(CCCNC(=N)N)C(=O)NCCN(C(=O)CCc1c[nH]c2ccccc12)C(Cc1c[nH]cn1)C(=O)NCCN(C(=O)CCCCNC(=N)N)C(CCCCN)C(N)=O (stereo not shown) [Compound 6], the “disruption of the CD95/PLCγ1 interaction” value [1] is reported as “disrupt the CD95/PLCγ1 interaction” and the “effect on the CD95/FADD interaction” value [3] is reported as “without affecting the CD95/FADD interaction”.

With N=C(N)NCCCC(C(=O)NCCN(C(=O)CCCCCN)C(Cc1cnc[nH]1)C(=O)NCCN(C(=O)CCc1c[nH]c2ccccc12)C(CCCCN)C(N)=O)N(CCN)C(=O)CCS (stereo not shown) [Compound 28] the “specificity … compared to CD95/FADD” value [2] was “particularly specific”.

N=C(N)NCCCCC(=O)N(CCNC(=O)C(Cc1cnc[nH]1)N(CCNC(=O)C(CCCNC(=N)N)N(CCN)C(=O)CCS)C(=O)CCCCCC(N)=O)C(CCCCN)C(N)=O (stereo not shown) [Compound 2] was tested, and the “disruption of the CD95/PLCγ1 interaction” value [1] was “disrupt the CD95/PLCγ1 interaction” and the “effect on the CD95/FADD interaction” value [3] was “without affecting the CD95/FADD interaction”.

For N=C(N)NCCCCC(=O)N(CCNC(=O)C(Cc1cnc[nH]1)N(CCNC(=O)C(CCCNC(=N)N)N(CCN)C(=O)CCS)C(=O)CCc1c[nH]c2ccccc12)C(CCCCN)C(N)=O (stereo not shown) [Compound 3], the “disruption of the CD95/PLCγ1 interaction” value [1] was “disrupt the CD95/PLCγ1 interaction” and the “effect on the CD95/FADD interaction” value [3] was “without affecting the CD95/FADD interaction”.

In the case of N=C(N)NCCCCC(=O)N(CCNC(=O)C(Cc1cnc[nH]1)N(CCNC(=O)C(CCCNC(=N)N)N(CCN)C(=O)CCS)C(=O)CCC1CNc2ccccc21)C(CCCCN)C(N)=O (stereo not shown) [Compound 4], the “disruption of the CD95/PLCγ1 interaction” value [1] is reported as “disrupt the CD95/PLCγ1 interaction” and the “effect on the CD95/FADD interaction” value [3] is reported as “without affecting the CD95/FADD interaction”.

For CCC(=O)N(CCN)C(CCCNC(=N)N)C(=O)NCCN(C(=O)CCCCCN)C(Cc1cnc[nH]1)C(=O)NCCN(C(=O)CCCCNC(=N)N)C(CCCCN)C(N)=O (stereo not shown) [Compound 15], the “IC50 regarding the CD95/PLCγ1 interaction, in words” value [1] was “particularly low IC50 values” and the “specificity … compared to CD95/FADD” value [2] was “particularly specific”.

In the case of N=C(N)NCCCCC(=O)N(CCNC(=O)C(Cc1cnc[nH]1)N(CCNC(=O)C(CCCNC(=N)N)N(CCN)C(=O)CCS)C(=O)CCCCCN)C(CCCCN)C(N)=O (stereo not shown) [Compound 14], the “disruption of the CD95/PLCγ1 interaction” value [1] is reported as “disrupt the CD95/PLCγ1 interaction”, the “IC50 regarding the CD95/PLCγ1 interaction, in words” value [1] is reported as “particularly low IC50 values” and the “specificity … compared to CD95/FADD” value [2] is reported as “particularly specific”. The “effect on the CD95/FADD interaction” value [3] was “without affecting the CD95/FADD interaction”.

For N=C(N)NCCCC(C(=O)NCCN(C(=O)CCCCCN)C(Cc1cnc[nH]1)C(=O)NCCN(C(=O)CCc1ccc(N)cc1)C(CCCCN)C(N)=O)N(CCN)C(=O)CCS (stereo not shown) [Compound 27], the “specificity … compared to CD95/FADD” value [2] was “particularly specific”.

N=C(N)NCCCCC(=O)N(CCNC(=O)C(Cc1cnc[nH]1)N(CCNC(=O)C(Cc1cccnc1)N(CCN)C(=O)CCS)C(=O)CCCCCN)C(CCCCN)C(N)=O (stereo not shown) [Compound 30] was tested, and the “specificity … compared to CD95/FADD” value [2] was “particularly specific”.

N=C(N)NCCCC(C(=O)NCCN(C(=O)CCCCCN)C(Cc1cnc[nH]1)C(=O)NCCN(C(=O)CCc1ccc(O)cc1)C(CCCCN)C(N)=O)N(CCN)C(=O)CCS (stereo not shown) [Compound 26] was tested, and the “specificity … compared to CD95/FADD” value [2] was “particularly specific”.

For N=C(N)NCCCCC(=O)N(CCNC(=O)C(Cc1cnc[nH]1)N(CCNC(=O)C(Cc1c[nH]c2ccccc12)N(CCN)C(=O)CCS)C(=O)CCCCCN)C(CCCCN)C(N)=O (stereo not shown) [Compound 31], the “IC50 regarding the CD95/PLCγ1 interaction, in words” value [1] was “particularly low IC50 values”.

In the case of N=C(N)NCCCCC(=O)N(CCNC(=O)C(Cc1cnc[nH]1)N(CCNC(=O)C(CCCNC(=N)N)N(CCN)C(=O)CCS)C(=O)CCc1ccc(O)cc1)C(CCCCN)C(N)=O (stereo not shown) [Compound 5], the “disruption of the CD95/PLCγ1 interaction” value [1] is reported as “disrupt the CD95/PLCγ1 interaction” and the “effect on the CD95/FADD interaction” value [3] is reported as “without affecting the CD95/FADD interaction”.

For N=C(N)NCCCC(C(=O)NCCN(C(=O)CCCCCN)C(Cc1cnc[nH]1)C(=O)NCCN(C(=O)CCCCCC(N)=O)C(CCCCN)C(N)=O)N(CCN)C(=O)CCS (stereo not shown) [Compound 29], the “specificity … compared to CD95/FADD” value [2] was “particularly specific”.

For CCCCCCCCCCCCCCCCCC(=O)N(CCN)C(CCCNC(=N)N)C(=O)NCCN(C(=O)CCCCCN)C(Cc1cnc[nH]1)C(=O)NCCN(C(=O)CCCCNC(=N)N)C(CCCCN)C(N)=O (stereo not shown) [Compound 1], the “IC50 regarding the CD95/PLCγ1 interaction, in words” value [1] was “particularly low IC50 values”.

N=C(N)NCCCCC(=O)N(CCNC(=O)C(N)CS)C(CCCCN)C(=O)NCCN(C(=O)CCc1c[nH]cn1)C(CCCNC(=N)N)C(=O)NCCNC(=O)CCCCCN (stereo not shown) [Compound 10] was tested, and the “disruption of the CD95/PLCγ1 interaction” value [1] was “disrupt the CD95/PLCγ1 interaction” and the “effect on the CD95/FADD interaction” value [3] was “without affecting the CD95/FADD interaction”.

In the case of N=C(N)NCCCCC(=O)N(CCNC(=O)C(Cc1cnc[nH]1)N(CCNC(=O)C(CCCNC(=N)N)N(CCN)C(=O)CCC(N)=O)C(=O)CCCCCN)C(CCCCN)C(N)=O (stereo not shown) [Compound 17], the “specificity … compared to CD95/FADD” value [2] is reported as “particularly specific”.

CC(O)CC(=O)NC(CS)C(=O)NCCN(C(=O)CCCCNC(=N)N)C(CCCCN)C(=O)NCCN(C(=O)CCc1c[nH]cn1)C(CCCNC(=N)N)C(=O)NCCNC(=O)CCCCCN (stereo not shown) [Compound 11] was tested, and the “disruption of the CD95/PLCγ1 interaction” value [1] was “disrupt the CD95/PLCγ1 interaction”, the “specificity … compared to CD95/FADD” value [2] was “particularly specific” and the “effect on the CD95/FADD interaction” value [3] was “without affecting the CD95/FADD interaction”.
